Data: PubChem BioAssay AID2685 (National Center for Advancing Translational Sciences (NCATS), 2010)
This is one part of the list. Shown are side measurements of this screen, not its main read-out; they come without a call. The list favours compounds with an active or inconclusive main result. Potencies come from curve fits of mixed quality, noted in brackets.

Assay: qHTS Assay for Lipid Storage Modulators in Drosophila S3 Cells;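 for cell number change: cells counted by Cell Tracker Red CMTPX staining in the red channel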
Details: BODIPY lipid droplet fluorescence, 18-24 h; for cell number change: measured here: cell count max response, cells fed with added oleic acid
How it was run: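 Drosophila S3 cells got compounds at several concentrations plus oleic acid (400 uM solution). Laser-scanning cytometry with 488 nm excitation read lipid droplets at 500-530 nm and cells at 575-640 nm. Percent activity was relative to 20 uM Triacsin C.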

[1] = measured here: lipid fluorescence (Fed channel) AC50, cells fed with added oleic acid
[2] = measured here: cell number channel AC50, cells fed with added oleic acid

SMILES	cell number change	AC50 [1]	AC50 [2]
CCOc1ccc(N2CC(C(=O)Nc3nnc(CC)s3)CC2=O)cc1 (configuration not stated)	9.21%	35.5 µM [falling, single point]	
Cc1cc(C(=O)N/N=C/C=C/c2ccccc2[N+](=O)[O-])c(C)o1	29.2%		
CN(C)c1ccc(/C=N/OC(=O)Nc2ccccc2)cc1	41.1%	29.1 µM [rising, single point]	29.1 µM [rising, single point]
CCC(=O)NC(C)C(c1cccs1)N1CCN(Cc2ccccc2)CC1 (configuration not stated)	10.1%	3.66 µM [falling, partial curve]	
Cn1cnnc1SCCC(=O)Nc1ccc(Cl)cc1	0.137%	0.58 µM [falling, single point]	
CC1CCN(c2nc3c(c(=O)[nH]c(=O)n3C)n2Cc2ccccc2)CC1	16.3%		4.11 µM [rising, single point]
Clc1cccc(-c2nnc(SCc3nc4ccccc4[nH]3)n2Cc2ccco2)c1	-5.07%		1.03 µM [rising, partial curve]
CC(C)N1CC(C(=O)Nc2ccc(Cl)c(Cl)c2)CC1=O (configuration not stated)	15.5%	7.31 µM [rising, partial curve, poor fit]	
CCOC(=O)c1c(N)sc2c1C1CCN2CC1	-1.68%	29.1 µM [falling, single point]	
CCOC(=O)C1=NN(c2cccc(C)c2)C2(S1)SC(C(C)=O)=C(C)N2c1ccccc1 (configuration not stated)		0.58 µM [rising, partial curve]	1.03 µM [rising, partial curve]
COc1ccc(-c2cc(=O)n(-c3ccc([N+](=O)[O-])cc3)[nH]2)cc1	17.1%	5.8 µM [falling, full curve]	
O=C(COc1ccc(Cl)cc1)N1CCN(c2cccc(C(F)(F)F)c2)CC1	-4.39%	11.6 µM [falling, partial curve]	
CCc1ccccc1NC(=O)Nn1cnnc1	26.9%	18.4 µM [rising, partial curve, poor fit]	
CC(=O)c1ccc(NS(=O)(=O)c2ccc3c(c2)N(C(C)=O)CCO3)cc1	18.5%		
O=C1c2ccccc2NC(c2ccccc2)N1Cc1ccco1 (configuration not stated)	-10.6%	0.13 µM [falling, full curve, poor fit]	
CCOC(=O)C1=C(C)NC2=C(C(=O)CC(C)(C)C2)C1c1ccsc1 (configuration not stated)	50.8%		4.61 µM [rising, partial curve]
CCN(C1CCCCC1)S(=O)(=O)c1ccc(-n2cnnn2)c(C)c1	37.8%		11.6 µM [rising, partial curve, poor fit]
Cc1cnc(NC(=O)Cc2cccs2)s1	-12.5%	23.1 µM [falling, single point]	
O=C(NCc1ccccc1)C(c1ccccc1)N(C(=O)c1csnn1)C1CCCC1 (configuration not stated)	7.69%		
COC(=O)COc1ccc(-n2cnnn2)cc1	-23.7%	0.651 µM [falling, full curve]	
COc1ccc2oc(=O)cc(-c3cc4cccc(OC)c4o3)c2c1	10.1%	0.731 µM [rising, full curve, poor fit]	

SMILES	cell number change	AC50 [1]	AC50 [2]
Cc1ccccc1NN1C(=O)C=CC1=O	-83.7%	18.4 µM [falling, partial curve]	2.06 µM [falling, partial curve, poor fit]
O=C(Nc1nc(-c2ccccn2)cs1)C1CCCC1	-67%	29.1 µM [falling, single point]	29.1 µM [falling, single point]
C=CCNC(=O)c1sc(SC)cc1-c1ccc(Cl)cc1			0.259 µM [rising, full curve, poor fit]
CCN(CC)C(=O)CSc1nnc(-c2cnccn2)n1-c1ccc(C)cc1			0.184 µM [falling, full curve, poor fit]
CCCc1nc2oc(C(=O)c3ccccc3)c(N)c2c2c1COC(C)(C)C2		0.517 µM [rising, full curve]	0.461 µM [rising, full curve]
Cc1ccc(C23CC4CC(CC(NC(=O)NC(C)(C)CO)(C4)C2)C3)cc1			6.51 µM [falling, partial curve, poor fit]
COc1ccc(/C=N/c2nc3ccccc3n2CCN2CCCCC2)cc1OC	-47.3%	29.1 µM [falling, single point]	25.9 µM [falling, single point]
CC(C)C[C@H]1CN=C(Nc2ccccc2)N1CCCC1CCCC1	20.4%		
COC(=O)COc1cc2ccccc2cc1C(=O)Nc1ccccc1	98.1%	29.1 µM [rising, partial curve]	29.1 µM [rising, partial curve, poor fit]
CC(C)c1ccc(-n2ccnc2SCC(=O)O)cc1	48.6%		
CSc1nnc(-c2sc3cc(C(F)(F)F)cnc3c2-c2ccccn2)n1C			6.51 µM [rising, partial curve, poor fit]
Cc1ccc(S(=O)(=O)c2nc(S(C)(=O)=O)sc2N2CCCCCC2)cc1			1.46 µM [rising, full curve, poor fit]
CC(NC(=O)CSc1ncn[nH]1)c1ccc(Cl)cc1Cl (configuration not stated)	5.65%	6.51 µM [rising, single point]	
CCN(Cc1nc(-c2ccc(C)cc2)no1)C(=O)c1ccco1		29.1 µM [rising, partial curve, poor fit]	
COc1ccc(C(=O)NC2CCCN(Cc3ccc(Cl)cc3)C2)c(OC)c1 (configuration not stated)	17.9%		
O=C(CSc1ncnc2ccccc12)c1ccc2c(c1)OCCO2	-3.91%		
Cc1ccccc1Cn1cc(NC(=O)c2noc(C(C)C)c2[N+](=O)[O-])cn1	-12.7%		
Cc1cccc(N2CCN(S(=O)(=O)c3ccc4[nH]c(=O)ccc4c3)CC2)c1C	-28%	18.4 µM [falling, single point]	
Cc1ccc(-c2noc(C3CCCN(C(=O)c4ccccc4Br)C3)n2)o1 (configuration not stated)	-7.89%		
CNC[C@H](O)c1ccc(O)c(O)c1	8.54%	0.00461 µM [rising, full curve, poor fit]	

A few values from above.
AC50 [1] with CCC(=O)NC(C)C(c1cccs1)N1CCN(Cc2ccccc2)CC1 (configuration not stated) reads 3.66 µM [falling, partial curve]
cell number change with CCOC(=O)C1=C(C)NC2=C(C(=O)CC(C)(C)C2)C1c1ccsc1 (configuration not stated) reads 50.8%
AC50 [1] with CCOc1ccc(N2CC(C(=O)Nc3nnc(CC)s3)CC2=O)cc1 (configuration not stated) reads 35.5 µM [falling, single point]
